PubChem BioAssay AID248 (DTP/NCI, 2004)
The list shows only some results of the screen, not a fair sample: it is rich in T/C values a quarter to a half above the control, in often repeated tests (any T/C) and in doses without a T/C. Other doses and runs of a compound stand elsewhere. T/C: endpoint of the treated group in % of that of the vehicle group. Some entries give survivors of the animals treated and no T/C: the source files T/C as zero there, which appears to mark a toxic dose or a test without result, not a measured value. Some doses without a T/C left all or most animals alive at the check, yet need not have been tolerated: the source hardly ever lists a survival T/C far under the control, and the zero likely stands for such cases as well. Survivors were counted at the toxicity check, usually on the fifth day, unless a day is given; later deaths do not show. Schedules are NCI's codes, read here as Q, the interval in days (D) or hours (H), X, the number of doses. Some entries hold several experiments; the results are listed from low to high. Some schedules carry Z or #; the key to these is not given.

Tested on: L1210 leukemia ip in BDF1 mice, survival T/C
Assay: NCI In Vivo Anticancer Drug Screen. Data for tumor model L1210 Leukemia (intraperitoneal) in B6D2F1 (BDF1) mice
Conditions: T/C endpoint: mean survival time, higher T/C = longer survival
[1] = dose: 200.0 mg/kg/injection, schedule: Q04DX002 (ip), vehicle: saline
[2] = dose: 400.0 mg/kg/injection, schedule: Q04DX002 (ip), vehicle: saline
[3] = dose: 400.0 mg/kg/injection, schedule: Q04DX003 (ip), vehicle: saline with Tween-80
[4] = dose: 50.0 mg/kg/injection, schedule: Q04DX003 (ip), vehicle: saline
[5] = dose: 100.0 mg/kg/injection, schedule: Q04DX003 (ip), vehicle: saline
[6] = dose: 200.0 mg/kg/injection, schedule: Q04DX003 (ip), vehicle: saline
[7] = dose: 400.0 mg/kg/injection, schedule: Q04DX003 (ip), vehicle: saline
[8] = dose: 400.0 mg/kg/injection, schedule: Q01DX001 (ip), vehicle: Klucel (hydroxypropylcellulose) (HPC)

NC(=S)NNc1ccccn1
survivor count (dose: 25.0 mg/kg/injection, schedule: Q01DX009 (ip), vehicle: saline): 1 of 3
survivor count (dose: 50.0 mg/kg/injection, schedule: Q01DX009 (ip), vehicle: saline): 0 of 3
survivor count [1]: 0 of 3
survivor count [2]: 0 of 3

CN(CCN1CCCCC1)C(=O)C(O)(c1ccccc1)C1CCCCC1 (stereo not given)
survivor count (dose: 300.0 mg/kg/injection, schedule: Q01DX001 (ip), vehicle: saline): 1 of 6

CCN(CC)CC1CO1 (stereo not given)
survivor count (dose: 30.0 mg/kg/injection, schedule: Q01DX009 (ip), vehicle: saline): 0 of 6

CCCCNC(c1ccccc1)=[N+]1CCCCC1
survivor count (dose: 50.0 mg/kg/injection, schedule: Q04DX002 (ip), vehicle: saline): 1 of 3
survivor count (dose: 100.0 mg/kg/injection, schedule: Q04DX002 (ip), vehicle: saline): 0 of 3
survivor count [1]: 0 of 3
survivor count [2]: 0 of 3

O=S(=O)(Cl)OC1C2COC(O2)C(OS(=O)(=O)Cl)C1OS(=O)(=O)Cl (stereo not given)
survivor count (dose: 100.0 mg/kg/injection, schedule: Q04DX003 (ip), vehicle: saline with Tween-80): 6 of 6
survivor count (dose: 200.0 mg/kg/injection, schedule: Q04DX003 (ip), vehicle: saline with Tween-80): 6 of 6
survivor count [3]: 6 of 6

CC12CCC(C(=N/O)/C1=N\O)C2(C)C (stereo not given)
survivor count (dose: 100.0 mg/kg/injection, schedule: Q01DX009 (ip), vehicle: Klucel (hydroxypropylcellulose) (HPC)): 4 of 6
survivor count (dose: 200.0 mg/kg/injection, schedule: Q04DX003 (ip), vehicle: Klucel (hydroxypropylcellulose) (HPC)): 5 of 6
survivor count (dose: 400.0 mg/kg/injection, schedule: Q04DX003 (ip), vehicle: Klucel (hydroxypropylcellulose) (HPC)): 1 of 6

CCN(CC)CCN(C(=O)C(O)(c1ccccc1)c1ccccc1)C(C)C
survivor count [2]: 1 of 3

Cc1ccc(N(C=O)N=O)cc1
survivor count (dose: 400.0 mg/kg/injection, schedule: Q01DX001 (ip), vehicle: saline): 1 of 4

C=C(C)C1CCC2=CCCC(C)C2(C)C1 (stereo not given)
survivor count (dose: 400.0 mg/kg/injection, schedule: Q04DX003 (ip), vehicle: acetone): 5 of 6

O=C(O)/C(=C\c1ccc([N+](=O)[O-])cc1)c1cccc(Cl)c1
survivor count (dose: 400.0 mg/kg/injection, schedule: Q01DX009 (ip), vehicle: Klucel (hydroxypropylcellulose) (HPC)): 1 of 3 and 3 of 6
survivor count (dose: 400.0 mg/kg/injection, schedule: Q04DX002 (ip), vehicle: Klucel (hydroxypropylcellulose) (HPC)): 1 of 3

Cc1ccc2c[n+]3cc4ccccc4cc3cc2c1
survivor count (dose: 12.5 mg/kg/injection, schedule: Q01DX009 (ip), vehicle: saline): 0 of 6
survivor count (dose: 25.0 mg/kg/injection, schedule: Q04DX003 (ip), vehicle: saline): 6 of 6
survivor count [4]: 1 of 6
survivor count [5]: 2 of 6
survivor count [6]: 0 of 6
survivor count [7]: 0 of 6

NC(=O)c1[nH]cnc1N1CC[N+](Cc2ccccc2)=N1
survivor count [8]: 3 of 6

CC1(C)C2CCC1(C)C(CO)C2 (stereo not given)
survivor count (dose: 400.0 mg/kg/injection, schedule: Q04DX003 (ip), vehicle: other): 6 of 6

CCN(C(=O)c1cccc(C(=O)N(CC)c2ccccc2C)c1)c1ccccc1C
survivor count [3]: 5 of 6

C/C=C1\CN(C)[C@H]2Cc3c([nH]c4ccccc34)[C@@H](c3cc4[nH]c5c(c4cc3OC)CCN3C[C@H]4C[C@H](CC)[C@H]3[C@@]5(C(=O)OC)C4)C[C@H]1C2C(=O)OC (stereo not given in full)
survivor count (dose: 90.0 mg/kg/injection, schedule: Q01DX Z (ip), vehicle: other): 0 of 6
survivor count (dose: 105.0 mg/kg/injection, schedule: Q01DX Z (ip), vehicle: other): 0 of 6
survivor count (dose: 120.0 mg/kg/injection, schedule: Q01DX Z (ip), vehicle: other): 0 of 6
survivor count (dose: 135.0 mg/kg/injection, schedule: Q01DX Z (ip), vehicle: other): 0 of 6

O=C(OC(CC[P+](c1ccccc1)(c1ccccc1)c1ccccc1)(C(=O)c1ccccc1)c1ccccc1)c1ccccc1 (stereo not given)
survivor count (dose: 3.0 mg/kg/injection, schedule: Q01DX009 (ip), vehicle: saline with Tween-80): 2 of 6
survivor count (dose: 6.0 mg/kg/injection, schedule: Q01DX009 (ip), vehicle: saline with Tween-80): 3 of 6
survivor count (dose: 12.0 mg/kg/injection, schedule: Q01DX009 (ip), vehicle: saline with Tween-80): 0 of 6
survivor count (dose: 150.0 mg/kg/injection, schedule: Q01DX001 (ip), vehicle: carboxymethylcellulose (CMC)): 0 of 6
survivor count (dose: 300.0 mg/kg/injection, schedule: Q01DX001 (ip), vehicle: carboxymethylcellulose (CMC)): 0 of 6

OCCNCCN1CCN(CCCN2c3ccccc3Sc3ccc(C(F)(F)F)cc32)CC1
survivor count (dose: 35.0 mg/kg/injection, schedule: Q01DX009 (ip), vehicle: saline): 0 of 6
survivor count [4]: 1 of 6
survivor count (dose: 55.0 mg/kg/injection, schedule: Q01DX009 (ip), vehicle: saline): 0 of 6
survivor count (dose: 80.0 mg/kg/injection, schedule: Q01DX009 (ip), vehicle: saline): 0 of 6
survivor count [5]: 1 of 6

COc1ccc(CCNC(=S)NCCc2ccc(OC)c(OC)c2)cc1OC
survivor count [7]: 6 of 6

CCC[CH2][Sn]([Br])([c]1ccccc1)[c]1ccccc1
survivor count (dose: 1.56 mg/kg/injection, schedule: Q01DX009 (ip), vehicle: saline with Tween-80): 3 of 6
survivor count (dose: 3.13 mg/kg/injection, schedule: Q01DX009 (ip), vehicle: saline with Tween-80): 3 of 6
survivor count (dose: 6.25 mg/kg/injection, schedule: Q01DX009 (ip), vehicle: saline with Tween-80): 1 of 6
survivor count (dose: 100.0 mg/kg/injection, schedule: Q04DX002 (ip), vehicle: saline with Tween-80): 0 of 3
survivor count (dose: 200.0 mg/kg/injection, schedule: Q04DX002 (ip), vehicle: saline with Tween-80): 0 of 3
survivor count (dose: 400.0 mg/kg/injection, schedule: Q04DX002 (ip), vehicle: saline with Tween-80): 0 of 3

O=C(Nc1ccc(Cl)cc1C(=O)c1ccccc1)c1ccc(Cl)cc1Cl
survivor count (dose: 200.0 mg/kg/injection, schedule: Q04DX002 (ip), vehicle: Klucel (hydroxypropylcellulose) (HPC)): 3 of 3

CN1CCC(=C(C#N)C#N)CC1
survivor count [6]: 1 of 6
survivor count [7]: 0 of 6

CNC(=O)c1cnc(SC)nc1N
survivor count [8]: 0 of 6
